Protein sequences, listed by entry. Tags and fused reporters are not part of them. Lines headed by an entry give the natural chain unless they say otherwise; changes in a name come on top.
UniProt Q96C03: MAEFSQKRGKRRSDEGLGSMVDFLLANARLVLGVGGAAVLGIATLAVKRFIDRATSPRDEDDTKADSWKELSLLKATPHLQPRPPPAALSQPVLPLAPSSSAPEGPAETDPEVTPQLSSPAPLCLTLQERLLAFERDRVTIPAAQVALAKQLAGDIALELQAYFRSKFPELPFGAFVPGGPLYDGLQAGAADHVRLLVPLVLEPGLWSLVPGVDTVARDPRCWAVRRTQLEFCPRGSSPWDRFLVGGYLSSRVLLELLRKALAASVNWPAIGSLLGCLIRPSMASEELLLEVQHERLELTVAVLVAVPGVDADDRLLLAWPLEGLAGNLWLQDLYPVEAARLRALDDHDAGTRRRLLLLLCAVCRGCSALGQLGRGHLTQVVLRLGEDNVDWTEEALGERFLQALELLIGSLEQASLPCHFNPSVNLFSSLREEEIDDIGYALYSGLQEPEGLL

In PMC8948191:

Target: MiD49ΔTM (MiD49 with a transmembrane domain deletion) (human) (UniProt Q96C03)
Assay: pull-down; cell-free system, recombinant GST- or His-fusions purified from E. coli; CLUH and Drp1 (or Drp1ΔIB) included together with the receptor (MiD49ΔTM, MffΔTM or MffΔCCΔTM) as bait; no cross-linkers; both purified

Purified recombinant Drp1 (isoform 1) (from UniProt O00429-1 1-736)
binding: binds

No constants are given. Whether binding was seen depends on the method and setting. Binding can be weak; no strength is given.
